Structures were worked out from names or drawings and are uncertain. Bounds are passed on as bounds.

In patent US9714247B2, “Multiple kinase pathway inhibitors” (Mannkind Corporation, priority 2012, dated 2017) one finds pSRC % inhibition, EC50 and pPLCγ % inhibition data, which are given here for 1 compound.

The subject of test [1] is phosphorylation of SFKs in Ramos cells. Nature of the test: SFK phosphorylation (Tyr 416) by flow cytometry. The conditions noted are these: 0.3 uM, SFK phosphorylated at Tyr 416. For orientation: In flow cytometry, cells or beads pass a laser one at a time.
The subject of a further test is DoHH2. Nature of the test: CellTiter-Glo proliferation/viability assay. It counts as cell-based, human. The settings on record: read-out: DoHH2 EC50.
A further test has as its system Ramos. Put plainly: CellTiter-Glo proliferation/viability assay. The class given is cell-based, human. The settings on record: read-out: Ramos EC50.
The subject of test [2] is PLCγ2 phosphorylation in Ramos cells. Nature of the test: PLCγ2 phosphorylation by flow cytometry.

Compound `CCN(CC)CCOc1ccc(Nc2cc3c(cn2)cc(-c2ccccc2)c(=O)n3C(C)CO)nc1` (centres unmarked) gave a pSRC % inhibition in test [1] of 18%. Moreover, the EC50 with DoHH2 is under 1 µM; in the test with Ramos, 1 to 10 µM; in test [2] (read-out: Inhibition of phosphorylation of PLC-γ2 EC50, anti-phospho PLCγ2 (Tyr1217), four concentrations) it was over 3 µM. In test [2] (0.3 uM, anti-phospho PLCγ2 (Tyr759)), the pPLCγ % inhibition is on record as 12%.
